Results are given in words; binding and its absence hold for the method and conditions named. In cells and extracts the contact can be indirect. Here binding means that the protein was enriched with, or labelled near, the bait; the list need not be complete.
These binders were tested against SmPOM33-TagRFP-T (Sordaria macrospora) (UniProt F7VN14) (assay: affinity purification with mass spectrometry; POM33-TagRFP-T precipitated from S. macrospora mycelium lysate (lysis buffer without NP-40) with anti-TagRFP-T antibody and Protein G Dynabeads, 4 °C; control free TagRFP-T strain; LC/MS with label-free quantification, FDR 0.01, S0 0.1; two experiments, seven samples).

Amino acid sequences for entries named in this document (tags omitted). A change or cut given only in a name is not applied to a line headed by its entry.
UniProt F7VN14: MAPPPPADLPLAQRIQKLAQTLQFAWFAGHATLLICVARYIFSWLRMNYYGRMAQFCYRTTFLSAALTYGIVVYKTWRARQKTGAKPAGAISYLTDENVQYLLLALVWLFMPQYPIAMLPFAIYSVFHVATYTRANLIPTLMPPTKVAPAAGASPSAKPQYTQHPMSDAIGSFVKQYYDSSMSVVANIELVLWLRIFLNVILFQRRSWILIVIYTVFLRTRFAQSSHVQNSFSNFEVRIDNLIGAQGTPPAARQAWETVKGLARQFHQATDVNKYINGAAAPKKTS

Row | Binder | binding
1 | TMEM16-like protein (SMAC_00943) (protein, UniProt F7VNJ0 1-738) MADPLSFYLQDDKAQPGTGSNFDVDYVIHYKLPTTSVKEKEEAEAAFIQLINALSAVGFATEVRPGGKSSLLVFTKIASEKLLTSQVYRYRIQDWLFGVRTSAPNQDLSKYLEEEPVSEAERLRLTYLLITKSKNEGGAGITAKVGKWKYVESVFPLHDHAFNRRWIKAWSGKYFLDEEDLNRIRDKFGERVAFYFAFLQSYFAFLLFPAAFGFAAWLILGKFSWFYAVVNSLWSVVFFEHWKTKEVDLAVRWGVRGVSRIQHPRPQFQYERETQDPITGEIVRVYSPFKRLSRQLLQIPFALACVVVLGGLIASCFSIEVFITEIYAGPFKQYLTFLPTVLLTIFMPTFSGLLTNLAEQLTKAENYETHDAHQASFIEKIFVLNFITSYLPILLTAFVYVPFGKLLVPYLDVFKVTAQSFTTMEKPVTKSWEINPDRLTQQVIYFTVTAQIVNFLTEVIVPYAKRKVFKKVQEVQSEFSGNGHELQIKDHPDEADFLKRVRNEAELDEYDVTVDYREMVVQFGYLSLFSVIWPLAACSFLANNWVEARSDALKIAIGSQRPVPWRADSIGPWLNSLGFLSWMGSITSAALVYLFNKHDINPDGTPWDISGWALLLSILFAEHIYFAVQLVVRSLVQKLDNPGLQKERAERYAMRKKLLEQTFGSHGHDADLTEEAQGPGHVSSGERITREALEEEARVNATKTPEQLFWLRQRGAAETIEIGRGLIAEVAAANQTKS | binds
2 | dolichyl-phosphate-mannose-protein mannosyltransferase (SMAC_06805) (protein, UniProt F7VSQ7 1-1145) MARSGKKSPAPPPAYAPAYAPPPAYEAVPTSAVVFKTKNNKNKSVKVKDDYSSDGVQDNDPFLLPGSDFTLLTITTIVSAIVRLFRIYQPSSVVFDEVHFGGFASKYIKGKFFMDVHPPLAKLMITLFGWLAGFDGNFDFKEIGKDYIEPGVPYVAMRMFPAICGILLAPTMFLTLKAAGCRSTTAFLGAGLIIFENGLLTQARLILLDSPLMIGTALTALGFTAFTNQQELGPAKAFTPSWWFWLAITGLGLGITASIKWVGLFTIAWVGSLTLIQLWVVLGDYKHVSPRAFTKHFMARAFCLIVIPLSFYLAMFGIHFLCLTNPGEGDGFMSSEFQSTLNSKGMQDVPADILMGSRVTIRHVNTQGGYLHSHPLMYPTGSKQQQITLYPHKDDNNIWLLENQTQPLGIDGQPINGTSAWNNLPETPYIKDGAILRLYHLPTHRRLHSHDVRPPVTEADWQNEVSAYGYEGFDGDANDFFRVEIVKKKSKGGVAQERLRTIDTKFKLVHIMTGCVLFSHKVKLPDWASEQQEVTCAKGGSLPNSLWYIESNDHPQLGADAEKVNYRNPGFFGKFWELQKVMWKTNAGLVESHAWDSRPEAWPILRRGINFWGRQHRQVYLMGNPIIWWSATAAVVLYVLFKGIAILRWQRSCNDYANPIFKRFDYEVGTSVLGWALHYFPFYLMQRQLFLHHYFPALYFAIIAFCQVFDFLTARISLVKDKVIFNRLGAVLFLALSMVVFWLFSPLAYGNPWTKAECKRVKLFSTWDFDCNTFPDSYDNYYGITPTSQAPSQTPVATPERPVVANAPPQAQKPIANQEQQAAKQEPSANPVGQRVISKEEKVEYRDQDGNLLNEEQVEALKGKVEFKTKYETRTRVIDANGNEIQLGGSGAPKVVPAPKASQPVAPPHPDVQGVDQETSNVPAAEEAVPEAEKSVDGVKEAEEKVAKPASESNEATASQEVEQSEEVKAAQERIQKIVERIQKVADNVDNLKNNVVEKAGDKVEQVEEKAEQVAEKAQEAAEPAKEKAAEAAEKVAEKAEEATEQSKEKVESVVDNVKEKVAERAEQVQEKAAEKAEQVQEKAAEKAEQVQEKVAERAEQVQEKAQEAGEKAQEVVLEKADQVEKKAEQVGEKDQEKTEAKDEL | binds
3 | putative tricalbin (SMAC_02980) (protein, UniProt F7VY15 1-1470) MATQQSANELKQQGAIEAAQDPNSSVTAEQAEKKIVADSQELGITAFTFDPNASAADKAAQAREAIPHGLRRPKGLAIASDLDDGSKTDIDLPPPSKAGALDLPTTADGKVIEDDRTPEQVEADLIKKVGWAPRFGWPKNPEEEQDLLDHATFVESNLSENYFGVAVLGGGLGWVFIIMACCSTYYRTSLRRVRRNFRDDITRELGLKKLETDNESVEWINSFLVKFWPIYQPVLAQTVINSVDQVLSMSTPAFLDSLKLKTFTLGSKPPRMEHVKTYPKAEDEVVIMDWMFSFTPNDTADMTARQLQNKVNPKVVLEIRVGKAMISKGLDVIVEDMSFSGLMRLKIKFQMAFPHIEKVEMCFLERPKIDYVCKPLGGDTFGFDINFIPGLESFIQEMIHATLAPMMYAPNVFPIEVAKMLAGTPVDRAIGVVAITLHGAQGLKNPDKFSGTPDPYAVLSLSKRQPLAQTKVIKENDNPRWNETHYIIISSFNDSLDIDVFDFNDFRKDKKLGVTSFPLENLEEINEFENERLELKYDGKARGAVSCDIRFFPVLEEIKLPDGTVEPPPESNTGILSFTVEQAKELDSSKSMVGQLNPYAMLLLNGKEVHKTKTMKRTNQPIWPNGSKEILITDRKNAKLGVALKDDRDIAGDQLLGTYQIKLDDMLEFMAKGQDWYSLAGTKTGRVKMMAQWRPVAISGAAASTGGYTTPAGVMRLHFINARSLRNVEALGKSDPYVRVLLSGIEHGRTVTHKNNLNPDFDEVLYIPVHSPKERLQLDVMDAENMGRDRSLGLTEIFAGDYMKKDPETGEWLVHEKKDLRQDGLRMHGKGVAKGVLSYTVAFYPCLNIADPEDDEKEEQSDQSSEPKQSLDVPRSSDAGKFSSTLERTDSIKPENGGTSRPITPKTPVTPTSVVASRKSSDQKEPPKLRLNPQELLQYESGLIIFKLMEAELPKSQCRVEVCVDDYAFPSYVSSTSRTKTHTFDEIGDCFIRELEFSKLTIKINERSEKQEENGKENTLARLSGNTLDTLKQCLNNPTTLKLKNEDGKVYSIKVSLKYVPVRMQLDPSESINNMGHLRVDVLDAQNLPSADSNGKSDPYVKFEFNGQEVFKSKTVKKTLNPTWNEFFELPVPSRTAATFKALVWDWDFADKPDFLGSADINLGQLEPFRAQEVRLTLDGKSGVLRLRLLFRPDYVTRTRQGTSTLVGTFAVPGKIVTGVAGVPLKGVGAVGHGVGKGASFIKRGFRSNTKRDDDSDSNTNSSVELPTIITNAPEPPSGLKRSAVITEADGSSNELHHARTRSVGASSVRSAMFPGASSGTASFTVVSASGYPPSTDVYVTITQLKDGKSKAVGKTKHRKSSSGTVKFDETFNIQCTPDSQFKIEAKEHHTFGSDDHLGESVYFVDESNSGQEKALKVGSGTVYLKSGFVPSESAQDASSTLSPDQSPKSSSLRRSFLSKGARSPSRDGP | binds
4 | cyclopropane-fatty-acyl-phospholipid synthase (SMAC_02133) (protein, UniProt F7W124 1-525) MSEPHSVSGAKPAYIFVETPAQPLSNTEKPKEDYGVRTTTFPAIKNAPLPADAAGTESFSNVLLFSILFGVPYYFSWKVGGGLKTTLFFALFTTLPLLAAFWVSHSMFSPRKNEKARFPGRPVEHYLTFKNPEDKLKYSGKNKIPMETFHEMYFNEEVDFNGDALDVMEYRHDWASFHFTYGLIKFFLTGMIPEVLMHTRSQDEEQVRDHYDRGDDFYSWFLGPRMIYTSGIISDANKEETLEELQDNKLAIVCEKADLKEGERLLDIGCGWGTLARFASVNYGVKATGITLGRNQTAWGNKALRTAGIPEEQSKILCMDYRDIPVSEGKYNKITCLEMAEHVGVRHFKGFMKQVYNMLDDDGIAVFQLAGLRKSWQYEDLVWGLFMNKHIFPGADASTPLGWYIDQFEKAGFEVRAVDTIGVHYSATLWRWYRNWLANREKVVAKYGKRWFRIWEFFLAYSTIIARQGSATCYQMTLVKNLNSTHRAEAIHTQQGLLGALRNTRANLKAWAQANAAEFPTVPAN | binds
5 | dolichyl-phosphate-mannose-protein mannosyltransferase (SMAC_08483) (protein, UniProt F7WA79 1-774) MASTTAIPEATLRQRNVPALTKKAKNGISSDVEIDKVPNAVAPAKSGSELEYKLALGLITGLAFLTRFWGISHPDEVVFDEVHFGKFASYYLERTYFFDVHPPFGKLLFAFMGWLVGYDGHFHFENIGDSYIRNKVPYVAFRSLPAILGALTVSVVYMIMWESGYSLPACLIAAGLVLLDNAHIGQTRLILLDATLVFAMACSLLCYIKFHKLRHEPFSRKWWKWLILTGFALSCDISTKYVGLFAFITIGSAVCIDLWDLLDIKRPGGALTLPQFGKHFAARAFGLIIMPFIFYLFWFQVHFSILTRSGPGDDFMTPEFQETLSDNIMLANAVTIDYYDTISLRHKETKAYLHSHPDKYPLRYDDGRVSSQGQQVTGYPFNDTNNYWQILPPGPDDQKLDHHIKNHDLVRLRHIVTDTILLSHDVASPYYPTNQEFTTVSIGDAYGDRAADTLFEIRIEHGKANQEFKSISSHFKLIHNPSKVAMWTHSKPLPEWGHKQQEINGNKQLAQSSNVWLVEDIVSLPADHPRRAKPEKKVKTLPFLRKWFELQRSMFWHNNQLTSSHPYASLPYQWPFLLRGVSFWTQNETRQQIYFLGNPIGWWLASSVLAIYVGIVLADQFSLRRGLDAMDRRTRSRLYNSTGFFFLAWATHYFPFFVMGRQLFLHHYLPAHLASALVTGSVVEFLFSTDSAEPDYHPSKSSKKVAPTTKRRLSARERLAGQSMAGAWIATAVIMALVAFGWYYFLPLTYGYPGLTAPEVNRRKWLGYDLHFAK | binds

Further lines, results first:

Row | binding | Binder
6 | binds | translocation complex component (putative SEC63) (SMAC_02255) (protein, UniProt F7W331 1-700) MSTDYAYDEEGHLWPFFVFTLTSIVTVPITYSLIKSSRNDPAAALKRIHTDYKHDQSSVVDTLRKSEKRKDGSKPWLIALVIAGWAVMGYMLYLIKITDAPVQNLWNPYDILGISESATEKQIKKTYKMLSLKFHPDKARPDVAKNETIDDLNRRYVEISKAYQALTDEDVRNNFIQFGNPDGKQGFSINIALPKAIVSDGNGKYIVLIYFALFGVLLPYLVGSWWYGTLRRSKEGVLMESANRLFKEYQDNIDEGGVIAALSSGQEFEDLFKGDKADAGLSKIESKVMASDELPPKEKKKLEDVESGPRRKALALLWAYLGRIELGDATLEKAKFQVAPIAHALNKSFNAIALAYMNTAPLLASYFASQRLIQAIPPKASPLYQLPHFNSTIVEAVEGDSRVHTTVQAFMDQPDAKRRSLVVGKGLLTDAQYKESIAYAKQLPYLRVAKAFFKVTGEKFIIPSSLVTLVVKGRFVPPGSEKVPDVKPIDLDDIDPAEDDLDAILGRKKTKKLVGKDEKGKPIYEETTESEDIYPPLASSPYFARDHSPRWHVFLTDSKQGRVAVPPFTFVSFDRPIYEADGKTPTFAMQTLKAQFQAPPQAGHYTFVMHIVCDSYVGFDTKMEVTLVVEDASRAADMKVEEEISEPEEDSIAGIMNAAKGAPTKQRVIKDEDDSDEESGTDDDEDDDTSDTNTDTEAEN
7 | binds | signal recognition particle (SRP) receptor subunit beta (SMAC_09603) (protein, UniProt F7WCA6 1-355) MSTTIETIATTATVVATTAAAGASSNTSSYSTEHIKELVKDLLIASLQPNKTVIITGLLIVLLVPVILHQYLHGDESGSSSSSSSLPSIILAGPSGAGKTALLTLFEKRAGRKTSPSSTDEKTASGAEPALTHTSQTPVSVELNAASFSSSDEDRKPRKFLLIDTPGHPKLRSTALNHLLPLDPKTGRPLPPSKTSHIKGVLFLLDASTLSPSSPDSSLSQTATYLYDLLLALQHRYSRHSKGSKHPPSIPVLIAANKLDLFTALPATLVKKELEAEIGRIRVSRSKGLLDSGVKEDVVDEKEEGDDWLGEYGSEKFEFRQMQEFDIEVEVVGGSVAGTEGPGVEGWWRWVVERV
